Measurements from patent publication US7267978, “Chimeric transcriptional regulatory element compositions and methods for increasing prostate-targeted gene expression” (The Regents of the University of California).
Construct, isoform or probe ends are uncertain for at least one entry. For part of these data: A negative result means that nothing was seen under these conditions. Tags and fusion partners may be left off the protein sequences shown.

Columns and labels:
[1] = molecular target: T1, Androgen receptor DNA-binding domain (ARDBD, aa 549-650) (Homo sapiens) (UniProt P10275); assay: footprint; conditions: footprint and gel shift; AR form not stated; MV number assigned to primers by order; purified recombinant protein; variant of PSA enhancer ARE V
T1 sequence (looked up): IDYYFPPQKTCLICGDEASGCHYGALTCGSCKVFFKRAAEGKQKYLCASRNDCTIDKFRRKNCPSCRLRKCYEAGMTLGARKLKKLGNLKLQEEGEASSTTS

Androgen receptor = molecular target: T2, Androgen receptor (UniProt P10275); assay: activity in cells; conditions: reporter with 496-bp enhancer; 1 nM R1881; protein in cells; protein details: CMV-AR, BHK 21 cells
T2 sequence (looked up, limits assumed): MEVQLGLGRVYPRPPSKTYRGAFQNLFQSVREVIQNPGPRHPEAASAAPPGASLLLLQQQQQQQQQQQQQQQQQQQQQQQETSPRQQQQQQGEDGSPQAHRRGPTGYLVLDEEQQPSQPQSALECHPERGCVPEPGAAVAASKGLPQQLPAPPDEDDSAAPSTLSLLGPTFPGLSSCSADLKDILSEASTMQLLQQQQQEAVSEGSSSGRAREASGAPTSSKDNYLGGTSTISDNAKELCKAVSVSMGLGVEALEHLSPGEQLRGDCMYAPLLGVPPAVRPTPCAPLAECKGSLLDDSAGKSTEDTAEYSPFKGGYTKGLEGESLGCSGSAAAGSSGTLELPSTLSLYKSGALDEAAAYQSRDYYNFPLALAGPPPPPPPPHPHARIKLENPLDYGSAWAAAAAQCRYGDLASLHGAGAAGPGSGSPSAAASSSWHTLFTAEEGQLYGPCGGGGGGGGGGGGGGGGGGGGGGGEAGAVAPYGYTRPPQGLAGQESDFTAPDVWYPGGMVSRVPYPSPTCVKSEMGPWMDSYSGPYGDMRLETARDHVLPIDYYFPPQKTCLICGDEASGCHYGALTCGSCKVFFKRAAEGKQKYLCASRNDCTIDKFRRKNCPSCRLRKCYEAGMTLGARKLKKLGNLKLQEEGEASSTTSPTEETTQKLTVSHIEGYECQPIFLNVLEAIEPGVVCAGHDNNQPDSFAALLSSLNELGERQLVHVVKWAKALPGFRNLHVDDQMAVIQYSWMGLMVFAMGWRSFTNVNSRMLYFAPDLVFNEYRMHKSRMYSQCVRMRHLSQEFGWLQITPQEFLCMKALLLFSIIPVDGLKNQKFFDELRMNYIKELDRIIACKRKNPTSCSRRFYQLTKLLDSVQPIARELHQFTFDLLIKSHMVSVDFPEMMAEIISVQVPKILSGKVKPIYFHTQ

Progesterone receptor = molecular target: T3, Progesterone receptor (UniProt P06401); assay: activity in cells; conditions: reporter with 496-bp enhancer; 10 nM progesterone; no significant effect; protein in cells; protein details: CMV-PR, BHK 21 cells
T3 sequence (looked up, limits assumed): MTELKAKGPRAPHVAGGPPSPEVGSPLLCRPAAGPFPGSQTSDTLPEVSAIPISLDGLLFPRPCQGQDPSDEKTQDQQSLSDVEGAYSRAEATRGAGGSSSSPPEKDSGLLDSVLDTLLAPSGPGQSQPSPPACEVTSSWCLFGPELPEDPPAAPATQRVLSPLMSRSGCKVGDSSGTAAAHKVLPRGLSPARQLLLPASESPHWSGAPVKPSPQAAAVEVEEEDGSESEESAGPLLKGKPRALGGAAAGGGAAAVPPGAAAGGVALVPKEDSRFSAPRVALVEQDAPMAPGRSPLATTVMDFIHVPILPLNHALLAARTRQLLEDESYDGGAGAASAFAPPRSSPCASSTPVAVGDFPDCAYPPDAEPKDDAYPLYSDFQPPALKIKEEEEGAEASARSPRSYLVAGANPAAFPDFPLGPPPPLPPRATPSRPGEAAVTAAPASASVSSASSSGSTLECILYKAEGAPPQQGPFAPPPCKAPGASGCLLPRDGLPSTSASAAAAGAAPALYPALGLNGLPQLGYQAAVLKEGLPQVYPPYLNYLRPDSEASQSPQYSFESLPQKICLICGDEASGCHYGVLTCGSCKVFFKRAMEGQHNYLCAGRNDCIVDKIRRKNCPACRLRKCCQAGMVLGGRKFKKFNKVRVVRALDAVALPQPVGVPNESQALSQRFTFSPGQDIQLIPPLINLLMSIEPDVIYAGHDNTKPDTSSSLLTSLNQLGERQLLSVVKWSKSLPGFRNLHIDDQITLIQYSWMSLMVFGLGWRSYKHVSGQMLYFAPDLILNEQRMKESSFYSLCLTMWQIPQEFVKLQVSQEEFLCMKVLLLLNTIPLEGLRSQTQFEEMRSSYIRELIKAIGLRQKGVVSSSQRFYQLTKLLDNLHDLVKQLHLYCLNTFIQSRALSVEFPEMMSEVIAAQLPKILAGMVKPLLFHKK

| Sequence | binding result [1] | activity on this sequence (Androgen receptor) | activity on this sequence (Progesterone receptor) |
| --- | --- | --- | --- |
| ACTGTTCAAACTTGCAAACCTGC (double strand) [ARE V mutant MV1] | no binding |  |  |
| GGTGACCAGAGCAGTCTAGGTGGATGCTGTGCACACGGGGTTTGTGCCACTGGTGAGAAACCTGAGATTAGGAATCCTCAATCTTATACTGGGACAACTTGCAAACCTGCTCAGCCTTTGTCTCTGATGAAGATATTATCTTCATGATCTTGGATTGAAAACAGACCTACTCTGGAGGAACATATTGTATTGATTGTCCTTGACAGTAAACAAATCTGTTGTAAGAGACATTATCTTTATTATCTAGGACAGTAAGCAAGCCTGGATCTGAGAGAGATATCATCTTGCAAGGATGCCTGCTTTACAAACATCCTTGAAACAACAATCCAGAAAAAAAGTGTTGCTGTCTTTGCTCAGAAGACACACAGATACGTGACAGAACCATGGTAACC (double strand) [PSA enhancer fragment -4309 to -4011] |  | active | not active |
